From patent US20230263907A1, “PREPARATION OF SOLID CYCLODEXTRIN COMPLEXES FOR OPHTHALMIC ACTIVE PHARMACEUTICAL INGREDIENT DELIVERY” (OCULIS SA, priority 2020, published 2023)
At least one structure is not confirmed: it was looked up by name or label, or the drawing left a doubt.

Key:
[1] = Solid and dissolved drug fraction and particle size of eye drop microsuspensions; format: physicochemical
[2] = Dissolution test of eye drop formulations in water; format: physicochemical; settings: formulation DF3, 450 times dilution in water
Method: In order to keep high concentrations of dissolved kinase inhibitors in the aqueous tear fluid the dissolution of the kinase inhibitor must proceed very quickly upon media dilution. The test formulation was above DF3 and the reference formulation was AF1 comprising acrizanib (Table 4 below). A dissolution test was performed by direct adding of a formulation aliquot into defined volume of water under constant stirring speed. The formulation/water ratio (final dilution) selection was based on the quantification limit of the used HPLC method and on the acrizanib solubility. The final dilution of 450 times was selected. At certain time after adding the formulation to water a sample of about 1 ml was taken from a stirring media, filtered through 0.45 µm filter and transferred to an HPLC vial for analysis.

## CN1CCN(c2ccc3nc(-c4c(N)c5c(F)cccc5[nH]c4=O)[nH]c3c2)CC1 [Dovitinib]
[1]; free base used
  amount of drug that could be included in the γ-cyclodextrin aggregates: 0.3 % (w/v)
[1]; γ-cyclodextrin eye drop formulations
  diameter of solid drug/γ-cyclodextrin complex microparticles: less than 10 µm
[2]
  fraction of drug dissolved within one hour: 100%
  fraction of drug dissolved within the first 5 minutes: about 80%
